In assay [1] the target is voltage-dependent anion channel 1 (VDAC1) (human (endogenous in A2780)) (UniProt P21796). Description: co-IP; A2780 cells transfected with wt-p62 or ΔUBA-p62, cisplatin 5 μg/mL 6 h; NP40 lysis buffer; immunoprecipitation with anti-VDAC1 and protein G agarose, blot anti-p62 and anti-VDAC1.
Assay [2] has as its target T1, hexokinase 2 (HK2) (human (endogenous in A2780)) (UniProt P52789).
T1 sequence: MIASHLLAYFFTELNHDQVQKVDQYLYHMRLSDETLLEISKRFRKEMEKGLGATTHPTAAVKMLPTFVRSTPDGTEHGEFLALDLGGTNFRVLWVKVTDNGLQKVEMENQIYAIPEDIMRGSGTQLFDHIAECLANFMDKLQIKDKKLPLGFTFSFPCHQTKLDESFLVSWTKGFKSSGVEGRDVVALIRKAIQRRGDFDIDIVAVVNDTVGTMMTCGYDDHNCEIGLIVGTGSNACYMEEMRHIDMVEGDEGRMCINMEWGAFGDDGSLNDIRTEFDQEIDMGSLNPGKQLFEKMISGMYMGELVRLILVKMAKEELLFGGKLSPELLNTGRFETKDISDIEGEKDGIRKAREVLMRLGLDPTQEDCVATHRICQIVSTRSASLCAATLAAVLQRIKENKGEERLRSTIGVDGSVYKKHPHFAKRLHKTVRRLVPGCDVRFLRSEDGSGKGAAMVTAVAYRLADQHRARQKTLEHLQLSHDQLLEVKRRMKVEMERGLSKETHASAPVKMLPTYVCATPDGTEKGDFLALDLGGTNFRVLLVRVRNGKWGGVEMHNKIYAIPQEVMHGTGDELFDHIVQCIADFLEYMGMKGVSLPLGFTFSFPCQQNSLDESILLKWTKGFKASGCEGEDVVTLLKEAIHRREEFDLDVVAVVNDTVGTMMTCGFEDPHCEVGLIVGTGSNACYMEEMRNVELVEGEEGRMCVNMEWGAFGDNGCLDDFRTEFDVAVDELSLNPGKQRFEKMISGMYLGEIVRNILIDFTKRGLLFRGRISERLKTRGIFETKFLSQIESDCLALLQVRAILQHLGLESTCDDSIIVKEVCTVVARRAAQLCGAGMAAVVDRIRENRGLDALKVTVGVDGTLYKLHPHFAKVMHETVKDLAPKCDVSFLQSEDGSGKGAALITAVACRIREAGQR
The assay is described as follows: co-IP; A2780 cells transfected with wt-p62 or ΔUBA-p62, cisplatin 5 μg/mL 12 h; NP40 lysis buffer; immunoprecipitation with anti-HK2 and protein G agarose, blot anti-p62 and anti-HK2.

Results are given in words; binding and its absence hold for the method and conditions named. In cells and extracts the contact can be indirect. Some entries that bind do so weakly or less than the wild type.

On to “wild-type p62 (pcDNA3.1-p62) (from UniProt Q13501 1-440)”, for which the binding entry in assay [1] and in assay [2] was “binds” each time.

Source of the values: PMC8070143.
